Measured values as given in PubChem BioAssay AID493014 (National Center for Advancing Translational Sciences (NCATS), 2011).
Out of some 340,000 compounds screened, about 170 (0.05%) were called active. The shares of active, inactive and inconclusive entries below differ from those in the screen. Calls come from the whole dose curve; as a rule, active = well fitted inhibition curve with a large enough effect in the signal ratio, with a control signal flat (not every such curve was filed as active); inconclusive = small, poorly fitted or top-dose-only effect, or effect the other way, or a change in a side signal; inactive = flat fitted curve, though single readings scatter; the % refers to the signal ratio. Potencies beside an inconclusive call are fits to weak or partial responses and may not hold up.

Test: qHTS Assay to Find Inhibitors of Chronic Active B-Cell Receptor Signaling;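 for activity change, negative = inhibition: plate controls were basal doxycycline-induced cells for no effect and cells given 10 µM MG132 for full effect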
Settings: ABC-DLBCL IkBa-CBG/CBR reporter, luminescence ratio (green luciferase fused to IkBa over red control in TMD8 lymphoma cells), 4 h; activity change, negative = inhibition: at 46.1 µM (top of the series)
In short: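 Concentration-response series (up to 46 uM) were applied to TMD8 dual-reporter cells for 4 h at 37C with doxycycline. Green/red ratio, after filter-overlap correction, defined %Activity; red signal alone was normalised to basal cells and zero luminescence.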
Potency is the fitted concentration of half-maximal effect.

| Structure (SMILES) | activity change, negative = inhibition | Potency |
| --- | --- | --- |
| CC(C)c1ccc(NC(=O)CSc2n[nH]c(=O)n2-c2cccnc2)cc1 | inconclusive: -19.7% | – |
| Oc1cccc(C2c3[nH]c4ccccc4c3CCN2Cc2cnn(-c3ccccc3)c2)c1 (centres undefined) | inconclusive: -4.33% | – |
| O=C(Nc1ccc(C(=O)N2CCOCC2)cc1)Nc1ccc(Cl)cc1Cl | inconclusive: -1.54% | – |
| OC(COCc1cccs1)CN1CCN(c2cccc(Cl)c2)CC1 (centres undefined) | inactive | – |
| COc1cccc(NC(=O)COC(=O)c2ccc3ccccc3n2)c1 | inactive | – |
| CCSCc1nnc(SCC(=O)Nc2ccc(F)cc2)n1CC | inconclusive: -1.81% | – |
| CCN(CC)c1ccc(NC(=O)CSc2nnc(N)s2)cc1C | inconclusive: -12% | – |
| Cc1c(C(=O)NCc2ccc3c(c2)OCO3)sc2nc(-c3ccc(F)cc3)cn12 | inconclusive: 11.4% | – |
| COc1cccc(C(=O)NCC(c2ccc3c(c2)OCO3)N2CCN(c3ccc(F)cc3)CC2)c1 (centres undefined) | – | inconclusive: 14.6 µM [falling, partial curve] |
| Fc1ccccc1C1c2cccn2CCN1C(=S)Nc1ccc(Br)cc1 (centres undefined) | inconclusive: 3.27% | – |
| CCOC(=O)c1cnc(Nc2ccc(OCC)cc2)nc1C | – | inconclusive: 14.6 µM [falling, partial curve, poor fit] |
| O=C(CS(=O)(=O)c1cn(CC(=O)N2CCOCC2)c2ccccc12)NCc1ccc(F)cc1 | inactive | – |
| Cc1cc(NC(=O)c2sccc2C)n(-c2nc3ccccc3[nH]2)n1 | inactive | – |
| CC(C)(C)c1ccc(C(=O)Nc2cnccn2)cc1 | inconclusive: -2.34% | – |
| Cc1cccc(C(=O)OC(C)C(=O)NC(=O)NC2CCCCC2)c1O (centres undefined) | inconclusive: 15% | – |
| O=C(COc1ccccc1)N1CCN(c2ncnc3c2cnn3-c2ccccc2)CC1 | inconclusive: -53.4% | – |
| CCOC(=O)c1cnc2c(C#N)c(C)nn2c1-c1ccccc1 | inconclusive: -11.9% | – |
| CC(=O)Nc1cc(N=Cc2ccc(O)cc2O)c(Cl)cc1Cl | – | inconclusive: 18.4 µM [cytotoxic, single point] |
| Cc1ccc(-n2ncc3c(N4CCCCCC4)ncnc32)cc1C | inconclusive: 18.8% | – |
| CC(Oc1ccc(Cl)cc1Cl)c1nc(-c2ccc(NC(=O)c3ccco3)cc2)no1 (centres undefined) | – | inconclusive: 6.51 µM [rising, partial curve, poor fit] |
| COC(=O)c1[nH]c2cccc(OC)c2c1NC(=O)CCN1CCN(c2ccccc2OC)CC1 | inactive | – |

| Structure (SMILES) | activity change, negative = inhibition | Potency |
| --- | --- | --- |
| CN(C)CCCN(C(=O)c1ccc(S(=O)(=O)N2CCCCCC2)cc1)c1nc2c(F)cccc2s1 | inconclusive: -1.75% | – |
| N#Cc1ccc(N2CCCNCC2)nc1 | inactive | – |
| CCOc1cccc(/C=C/c2ccc3cccc(O)c3n2)c1OC | inconclusive: -18.1% | – |
| O=C(Cc1ccccc1)Nc1ccc(NC(=O)c2ccccc2)nc1 | – | inconclusive: 35.5 µM [falling, single point] |
| CCc1cccc(C)c1NC(=S)N(CCN(C)C)C(C)c1ccco1 (centres undefined) | inconclusive: 3% | – |
| Cc1ccc(NC(=O)CSc2nc3nn(-c4ccccc4)c(=O)c-3c3n2CCCCC3)cc1F | inconclusive: 9.16% | – |
| CC1=CC(C)C(/C=N/n2cnnc2)C(C)C1 (centres undefined) | inconclusive: 1.09% | – |
| Clc1cccc(Nc2ncnc3c2cnn3-c2ccccc2)c1 | – | inconclusive: 29.1 µM [falling, single point] |
| Cc1ccc2cc(CCNS(=O)(=O)c3ccc(F)cc3)c(=O)[nH]c2c1 | inactive | – |
| Cc1ccc(-c2csc3ncn(CC(=O)N4CCOCC4)c(=O)c23)cc1C | inconclusive: 4.84% | – |
| COC(=O)C1C(c2ccc(N(C)C)cc2)C(C(=O)OC)S(=O)(=O)CS1(=O)=O (centres undefined) | inconclusive: 11.1% | – |
| COc1ccc2cc(C3c4cc(OC)c(OC)cc4CCN3C(=O)c3ccco3)c(=O)[nH]c2c1 (centres undefined) | – | inconclusive: 22.4 µM [falling, single point] |
| CC(C)n1c(CN(C)Cc2ccccc2)nc2c1c(=O)n(C)c(=O)n2C | inactive | – |
| COC(=O)c1[nH]c(=O)c2ccccc2c1OCc1ccccc1 | inactive | – |
| Brc1ccccc1OCCCOc1cccc2cccnc12 | inconclusive: -1.43% | – |
| COc1ccc(CSCCN)cc1Cl | – | inconclusive: 14.6 µM [rising, partial curve] |
| Cn1cc(CNC(=O)/C=C/c2ccc(Cl)cc2)cn1 | inconclusive: -11.6% | – |
| Cc1ccc(C)c(C(C)NC(=S)NCc2ccc(F)cc2)c1 (centres undefined) | inconclusive: -5.6% | – |
| Clc1cccc(CSc2ncn(-c3ccccc3)n2)c1 | inconclusive: 17.2% | – |
| N#CCC(=O)Nc1ccc(C(=O)NCCC(c2ccccc2)c2ccccc2)cc1 | inconclusive: -3.11% | – |
| O=C(Cn1cnc2c(nnn2Cc2ccc(F)cc2)c1=O)N1CCCCC1 | inactive | – |

| Structure (SMILES) | activity change, negative = inhibition | Potency |
| --- | --- | --- |
| CCCCN1CNC(=S)N(CCc2ccccc2)C1 | inactive | – |
| CCn1nc(C(=O)OCC(=O)c2c[nH]c3ccccc23)c2ccccc2c1=O | inconclusive: -14% | – |
| Cc1c(Cl)cccc1N1C(=O)c2ccccc2C1=O | inconclusive: 5.05% | – |
| CCCOc1ccc(NC(=O)CC2C(=O)N(CC)C(=S)N2CCNC(C)=O)cc1 (centres undefined) | inconclusive: 1.59% | – |
| Cc1cccc(C)c1NC(=S)Nc1ccc(F)cc1 | inconclusive: 10.4% | – |
| CCOc1ccc(NC(=S)NC(=O)/C=C/c2ccc(OC)c(OC)c2)c([N+](=O)[O-])c1 | inconclusive: 18.5% | – |
| CCOc1cc2[nH]c(=S)n(CCCCC(=O)NCc3ccco3)c(=O)c2cc1OCC | inconclusive: 2.27% | – |
| CC(=O)c1ccc(NC(=O)N2CCc3ccccc3C2)cc1 | inactive | – |
| CSc1ncnc2c1cnn2-c1ccc(C)cc1C | inactive | – |
| Cc1cc(C)n(/N=C/c2cccs2)c(=O)c1C#N | inconclusive: 0.199% | – |
| Cc1nnc2ccc(-c3ccc(NS(=O)(=O)c4ccccc4[N+](=O)[O-])cc3)nn12 | inconclusive: -18.5% | – |
| N=c1c2c(-c3ccccc3)c(-c3ccccc3)oc2ncn1CCN1CCOCC1 | inconclusive: -15.9% | – |
| Fc1ccc(-c2cc(-c3ccccc3)nc(-n3cccn3)n2)cc1 | inconclusive: -0.442% | – |
| CC(=O)OCCN(CCCn1c(-c2ccncc2)nc2ccccc21)c1nc(CN2CCCCC2)cs1 | inactive | – |
| O=C(Nc1cccnc1)c1sc2cccc(F)c2c1Cl | inconclusive: 0.426% | – |
| COc1ccc(/C=N/NS(=O)(=O)c2ccccc2)cc1OS(=O)(=O)c1ccc(C)cc1 | – | inconclusive: 20.6 µM [falling, single point] |
| CCOC(=O)c1c(NC(=O)c2ccco2)n(C2CCCCC2)c2nc3ccccc3nc12 | inconclusive: 0.164% | – |
| CCC(C)[C@H](NC(=O)NCc1ccc(S(N)(=O)=O)cc1)C(=O)O (some centres undefined) | – | inconclusive: 12.6 µM [falling, single point] |
| Cc1ccccc1C=Nc1ccccc1C(N)=O | inactive | – |
| NNC(=O)[C@H](Cc1ccccc1)NC(=O)NCCc1ccccc1 | inconclusive: 9.01% | – |
| Cc1cc(NC(=O)COC(=O)CCS(=O)(=O)c2ccc(C)c(C)c2)no1 | inconclusive: 1.14% | – |

Single values from above.
`COc1ccc(/C=N/NS(=O)(=O)c2ccccc2)cc1OS(=O)(=O)c1ccc(C)cc1` – Potency: inconclusive: 20.6 µM [falling, single point]
`CCC(C)[C@H](NC(=O)NCc1ccc(S(N)(=O)=O)cc1)C(=O)O` (some centres undefined) – Potency: inconclusive: 12.6 µM [falling, single point]

Some of the entries so far, bar-delimited:
Structure (SMILES) | activity change, negative = inhibition | Potency
Cc1cc(C)n(/N=C/c2cccs2)c(=O)c1C#N | inconclusive: 0.199% | –
Cc1nnc2ccc(-c3ccc(NS(=O)(=O)c4ccccc4[N+](=O)[O-])cc3)nn12 | inconclusive: -18.5% | –

Continuation.

| Structure (SMILES) | activity change, negative = inhibition | Potency |
| --- | --- | --- |
| Cn1c(SCC(=O)N2CCN(Cc3ccccc3)CC2)nnc1-c1ccncc1 | inconclusive: 6.92% | – |
| O=C(NNC(=S)Nc1ccc(Cl)cc1Cl)c1ccncc1 | – | inconclusive: 2.59 µM [rising, partial curve, poor fit] |
| Clc1ccccc1C1Nc2cccc3cccc(c23)N1 | inactive | – |
| Cc1cccc(NC(=O)c2sc(NC(=O)c3ccco3)c(C#N)c2C)c1C | inactive | – |
| c1ccc(CO/N=C(\c2ccc(C3CC3)nc2)C2CC2)cc1 | inconclusive: 17.6% | – |
| O=C(c1ccco1)N1CCN(C(=O)c2cc(-c3ccccn3)nc3ccc(Cl)cc23)CC1 | – | inconclusive: 16.4 µM [falling, partial curve, poor fit] |
| O=C(Nc1cc(S(=O)(=O)N2CCOCC2)ccc1N1CCCC1)c1ccc2c(c1)S(=O)(=O)c1ccccc1C2=O | inactive | – |
| CC(C)Oc1cccc(-c2cc(C(=O)N3CCN(S(C)(=O)=O)CC3)c3ccccc3n2)c1 | inconclusive: -8.72% | – |
| CC(=O)Nc1ccc(NC(=O)c2cc(-c3ccccc3)nc3ccccc23)cc1 | inactive | – |
| Cc1cc[n+](-c2[nH]c(=O)sc2/C=N/N=C(\[O-])CCn2c3ccccc3c3ccccc32)cc1 | inconclusive: 4.3% | – |
| CCCc1cnc(N2CCN(C(=O)c3ccc(F)cc3)CC2)nc1 | inconclusive: 0.425% | – |
| O=C(NNC(=O)c1ccccc1O)c1ccc(-c2ccc([N+](=O)[O-])cc2)o1 | – | inconclusive: 20.6 µM [falling, single point] |
| Cc1ccc(CNC(=O)Cc2ccc(Br)cc2)cc1 | inconclusive: 9.04% | – |
| COc1ccc(/C=C2/N=C3CCCCCN3C2=O)cc1 | – | inconclusive: 35.5 µM [falling, single point] |
| COc1ccc(C(=O)OCC(=O)NCCN2C(=O)CSC2=O)cc1[N+](=O)[O-] | inconclusive: -0.357% | – |
| CCOc1ccccc1N=Cc1c(O)c2ccccc2oc1=O | inconclusive: -19.1% | – |
| O=C(/C=C/c1ccccc1Cl)N(Cc1ccc(Cl)cc1)C1CCS(=O)(=O)C1 (centres undefined) | inconclusive: -19.9% | – |
| Cc1oc(-c2ccc(Cl)cc2)cc1-c1nn2c(-c3ccoc3C)nnc2s1 | inconclusive: 0.98% | – |
| Cc1cc(C)n(CC(O)Cn2c3ccccc3c3ccccc32)c(=O)n1 (centres undefined) | inconclusive: -11.8% | – |
| Cc1nnc(-c2cccc(Br)c2)c2cn(-c3ccc(Br)cc3)nc12 | inactive | – |
| Cc1ccc(NC(=O)c2ccccc2OCC(=O)Nc2ccccc2F)cc1S(=O)(=O)N(C)C | – | inconclusive: 20.6 µM [rising, partial curve, poor fit] |
